# Measurements published in the supplement of paper PMC4604168 (melanoma cell lines).
# Some of the results follow. Repeats are few or missing, and single values can be far off.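 Cells were imaged in 1,536-well plates, and nuclei stained with an antibody against cleaved PARP were counted against all DNA-stained nuclei to give the apoptosis fraction. Screening doses were chosen to leave most cells alive, and resting and induced cleaved-PARP levels differ strongly between cell lines.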
# Test system: SkMel5
# Test: cleaved PARP positive nuclei fraction relative to DMSO control; melanoma cells; higher = more apoptosis
# Conditions: library dose: low library concentration; 72 h
row,SMILES,cleaved PARP positive nuclei fraction [%]
1,"CN(c1ncccc1CNc1nc(Nc2ccc3c(c2)CC(=O)N3)ncc1C(F)(F)F)S(C)(=O)=O + O=C(O)c1ccc(-c2c[nH]c3ncc(-c4ccccc4)cc23)cc1C1CCCC1 [GSK650394] (first compound 0.08 µM, partner dose 0.16 µM)",68
2,"NC(=O)c1ccc(N(C(N)=O)c2c(F)cccc2F)nc1-c1ccc(F)cc1F + COc1ccc(-c2ccc3c(N4CCOCC4)nc(N4C[C@@H](C)O[C@@H](C)C4)nc3n2)cc1CO [KU0063794] (first compound 0.4 µM, partner dose 0.02 µM)",77.8
3,"NC1(c2ccc(-c3nc4ccn5c(=O)[nH]nc5c4cc3-c3ccccc3)cc2)CCC1 + CCCCCCCCCCCC1=C(O)C(=O)C=C(O)C1=O [Embelin] (first compound 0.4 µM, partner dose 1.2 µM)",81.5
4,"NC(=O)c1ccc(N(C(N)=O)c2c(F)cccc2F)nc1-c1ccc(F)cc1F + CC1(C)NC(=O)N(c2ccc([N+](=O)[O-])c(C(F)(F)F)c2)C1=O [nilutamide] (first compound 0.4 µM, partner dose 1 µM)",78.6
5,"COc1ccc(C2=N[C@@H](c3ccc(Cl)cc3)[C@@H](c3ccc(Cl)cc3)N2C(=O)N2CCNC(=O)C2)c(OC(C)C)c1 [Nutlin-3] + Cn1cncc1[C@@](N)(c1ccc(Cl)cc1)c1ccc2c(c1)c(-c1cccc(Cl)c1)cc(=O)n2C [tipifarnib] (first compound 0.1 µM, partner dose 0.01 µM)",66.5
6,"CN(c1ncccc1CNc1nc(Nc2ccc3c(c2)CC(=O)N3)ncc1C(F)(F)F)S(C)(=O)=O + Cc1cc([N+](=O)[O-])ccc1NS(=O)(=O)c1cc(Cl)ccc1Cl [FH535] (first compound 0.08 µM, partner dose 1 µM)",191
7,"CC(=O)O[C@@]12CO[C@@H]1C[C@H](O)[C@@]1(C)C(=O)[C@H](O)C3=C(C)[C@@H](OC(=O)[C@H](O)[C@@H](NC(=O)OC(C)(C)C)c4ccccc4)C[C@@](O)([C@@H](OC(=O)c4ccccc4)[C@H]21)C3(C)C [Docetaxel] + N#Cc1c(O)c2c(-c3ccc(-c4ccccc4O)cc3)csc2[nH]c1=O [A769662] (first compound 0.0001 µM, partner dose 2 µM)",206
8,"CC(=O)O[C@@]12CO[C@@H]1C[C@H](O)[C@@]1(C)C(=O)[C@H](O)C3=C(C)[C@@H](OC(=O)[C@H](O)[C@@H](NC(=O)OC(C)(C)C)c4ccccc4)C[C@@](O)([C@@H](OC(=O)c4ccccc4)[C@H]21)C3(C)C [Docetaxel] + COc1ccc2c(c1)CCC1C2CCC2(C)C(NCCCCCCN3C(=O)C=CC3=O)CCC12 [U73122] (first compound 0.0001 µM, partner dose 0.4 µM)",98.2
9,"CN(c1ncccc1CNc1nc(Nc2ccc3c(c2)CC(=O)N3)ncc1C(F)(F)F)S(C)(=O)=O + COc1cc(N2CCC(N3CCN(C)CC3)CC2)ccc1Nc1ncc(Cl)c(Nc2ccccc2S(=O)(=O)C(C)C)n1 [NVP-TAE684] (first compound 0.08 µM, partner dose 0.08 µM)",180
10,"NC(=O)c1ccc(N(C(N)=O)c2c(F)cccc2F)nc1-c1ccc(F)cc1F + O=C(O)c1ccc(-c2c[nH]c3ncc(-c4ccccc4)cc23)cc1C1CCCC1 [GSK650394] (first compound 0.4 µM, partner dose 0.16 µM)",143
11,"C[C@@H](N)c1ccc(C(=O)Nc2ccnc3[nH]ccc23)cc1 + Cc1cc(N2CCOCC2)cc2[nH]c(-c3c(NC[C@@H](O)c4cccc(Cl)c4)cc[nH]c3=O)nc12 [BMS536924] (first compound 0.4 µM, partner dose 0.2 µM)",184
12,"CC(=O)O[C@@]12CO[C@@H]1C[C@H](O)[C@@]1(C)C(=O)[C@H](O)C3=C(C)[C@@H](OC(=O)[C@H](O)[C@@H](NC(=O)OC(C)(C)C)c4ccccc4)C[C@@](O)([C@@H](OC(=O)c4ccccc4)[C@H]21)C3(C)C [Docetaxel] + COc1ccc(-c2ccc3c(N4CCOCC4)nc(N4C[C@@H](C)O[C@@H](C)C4)nc3n2)cc1CO [KU0063794] (first compound 0.0001 µM, partner dose 0.02 µM)",109
13,"CCCCCCCCc1ccc(CCC(N)(CO)CO)cc1 [fingolimod] + Cc1cc([N+](=O)[O-])ccc1NS(=O)(=O)c1cc(Cl)ccc1Cl [FH535] (first compound 2 µM, partner dose 1 µM)",95
14,"CCCCCCCCc1ccc(CCC(N)(CO)CO)cc1 [fingolimod] + Cn1cc(/C=C2\C(=O)Nc3cccnc32)c2ccccc21 [GW441756] (first compound 2 µM, partner dose 0.4 µM)",89.2
15,"Cn1cnc2c(F)c(Nc3ccc(Br)cc3Cl)c(C(=O)NOCCO)cc21 [selumetinib] + O=C(Nc1ccccc1)c1cc([N+](=O)[O-])ccc1Cl [GW9662] (first compound 0.015 µM, partner dose 2 µM)",74.3
16,"COc1ccc(C2=N[C@@H](c3ccc(Cl)cc3)[C@@H](c3ccc(Cl)cc3)N2C(=O)N2CCNC(=O)C2)c(OC(C)C)c1 [Nutlin-3] + COc1ccc2c(c1)CCC1C2CCC2(C)C(NCCCCCCN3C(=O)C=CC3=O)CCC12 [U73122] (first compound 0.1 µM, partner dose 0.4 µM)",83.4
17,"CS(=O)(=O)c1ccc(C(=O)Nc2ccc(Cl)c(-c3ccccn3)c2)c(Cl)c1 [vismodegib] + Cc1cc(N2CCOCC2)cc2[nH]c(-c3c(NC[C@@H](O)c4cccc(Cl)c4)cc[nH]c3=O)nc12 [BMS536924] (first compound 1 µM, partner dose 0.2 µM)",69.5
18,"CC1(C)CCC(c2ccc(Cl)cc2)=C(CN2CCN(c3ccc(C(=O)NS(=O)(=O)c4ccc(N[C@H](CCN5CCOCC5)CSc5ccccc5)c(S(=O)(=O)C(F)(F)F)c4)cc3)CC2)C1 + Cc1cc(N2CCOCC2)cc2[nH]c(-c3c(NC[C@@H](O)c4cccc(Cl)c4)cc[nH]c3=O)nc12 [BMS536924] (first compound 0.4 µM, partner dose 0.2 µM)",397
19,"CC(=O)O[C@@]12CO[C@@H]1C[C@H](O)[C@@]1(C)C(=O)[C@H](O)C3=C(C)[C@@H](OC(=O)[C@H](O)[C@@H](NC(=O)OC(C)(C)C)c4ccccc4)C[C@@](O)([C@@H](OC(=O)c4ccccc4)[C@H]21)C3(C)C [Docetaxel] + Cc1ccc(NC(=O)c2cccc(N(C)C)c2)cc1NC(=O)c1ccc(O)cc1 [ZM336372] (first compound 0.0001 µM, partner dose 2 µM)",268
20,"C[C@@H](N)c1ccc(C(=O)Nc2ccnc3[nH]ccc23)cc1 + COc1cc(N2CCC(N3CCN(C)CC3)CC2)ccc1Nc1ncc(Cl)c(Nc2ccccc2S(=O)(=O)C(C)C)n1 [NVP-TAE684] (first compound 0.4 µM, partner dose 0.08 µM)",47
21,"CCN(CC)CCNC(=O)c1c(C)[nH]c(/C=C2\C(=O)Nc3ccc(F)cc32)c1C [sunitinib] + O=c1cc(-c2cccc3c2Sc2ccccc2S3)oc(N2CCOCC2)c1 [KU55933] (first compound 0.4 µM, partner dose 1 µM)",74.8
22,"C[C@]1(O)C[C@@H](c2nc(-c3ccc4ccc(-c5ccccc5)nc4c3)c3c(N)nccn32)C1 + O=C(Nc1ccccc1)c1cc([N+](=O)[O-])ccc1Cl [GW9662] (first compound 0.4 µM, partner dose 2 µM)",88.3
23,"CCCCCCCCc1ccc(CCC(N)(CO)CO)cc1 [fingolimod] + NCC(=O)Nc1ccc(-n2nc(C(F)(F)F)cc2-c2ccc3c(ccc4ccccc43)c2)cc1 [OSU03012] (first compound 2 µM, partner dose 1 µM)",305
24,"CC1(C)CCC(c2ccc(Cl)cc2)=C(CN2CCN(c3ccc(C(=O)NS(=O)(=O)c4ccc(N[C@H](CCN5CCOCC5)CSc5ccccc5)c(S(=O)(=O)C(F)(F)F)c4)cc3)CC2)C1 + CO[C@@H]1[C@H](N(C)C(=O)c2ccccc2)C[C@H]2O[C@]1(C)n1c3ccccc3c3c4c(c5c6ccccc6n2c5c31)C(=O)NC4 [Midostaurin] (first compound 0.4 µM, partner dose 0.08 µM)",485
25,"C[C@]1(O)C[C@@H](c2nc(-c3ccc4ccc(-c5ccccc5)nc4c3)c3c(N)nccn32)C1 + Cc1cc([N+](=O)[O-])ccc1NS(=O)(=O)c1cc(Cl)ccc1Cl [FH535] (first compound 0.4 µM, partner dose 1 µM)",106

# Some values from the entries so far:
# CC1(C)CCC(c2ccc(Cl)cc2)=C(CN2CCN(c3ccc(C(=O)NS(=O)(=O)c4ccc(N[C@H](CCN5CCOCC5)CSc5ccccc5)c(S(=O)(=O)C(F)(F)F)c4)cc3)CC2)C1 + CO[C@@H]1[C@H](N(C)C(=O)c2ccccc2)C[C@H]2O[C@]1(C)n1c3ccccc3c3c4c(c5c6ccccc6n2c5c31)C(=O)NC4 [Midostaurin] (first compound 0.4 µM, partner dose 0.08 µM) – cleaved PARP positive nuclei fraction [%]: 485
# CS(=O)(=O)c1ccc(C(=O)Nc2ccc(Cl)c(-c3ccccn3)c2)c(Cl)c1 [vismodegib] + Cc1cc(N2CCOCC2)cc2[nH]c(-c3c(NC[C@@H](O)c4cccc(Cl)c4)cc[nH]c3=O)nc12 [BMS536924] (first compound 1 µM, partner dose 0.2 µM) – cleaved PARP positive nuclei fraction [%]: 69.5
